Data: patent US20140220596A1 (MEDICINAL BIOCONVERGENCE RESEARCH CENTER, published 2014)
No constants are given. Whether binding was seen depends on the method and setting. Sequences can lack the tags named with a protein.

By UniProt entry, the sequences of proteins in these tests, tags left out. Residues count along the entry.
UniProt P02769, residues 25-607: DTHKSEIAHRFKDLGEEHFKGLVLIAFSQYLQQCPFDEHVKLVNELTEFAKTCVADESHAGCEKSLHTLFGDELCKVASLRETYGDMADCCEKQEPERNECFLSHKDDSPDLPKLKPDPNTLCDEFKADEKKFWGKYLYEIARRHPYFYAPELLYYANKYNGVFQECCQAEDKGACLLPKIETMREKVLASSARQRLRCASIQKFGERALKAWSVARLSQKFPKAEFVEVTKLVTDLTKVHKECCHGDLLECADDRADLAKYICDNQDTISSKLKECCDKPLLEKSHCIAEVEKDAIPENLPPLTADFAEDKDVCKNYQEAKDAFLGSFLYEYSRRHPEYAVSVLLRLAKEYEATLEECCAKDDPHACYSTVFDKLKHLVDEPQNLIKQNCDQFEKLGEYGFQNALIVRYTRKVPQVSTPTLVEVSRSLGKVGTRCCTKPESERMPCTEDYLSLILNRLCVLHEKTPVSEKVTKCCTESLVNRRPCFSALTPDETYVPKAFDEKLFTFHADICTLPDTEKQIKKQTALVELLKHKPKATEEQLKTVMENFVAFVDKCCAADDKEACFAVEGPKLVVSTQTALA

Target: T1, Fc-fused soluble cadherin-6 (extracellular domain of CDH6 fused to the Fc fragment of human IgG1) (human) (UniProt P55285)
T1 sequence: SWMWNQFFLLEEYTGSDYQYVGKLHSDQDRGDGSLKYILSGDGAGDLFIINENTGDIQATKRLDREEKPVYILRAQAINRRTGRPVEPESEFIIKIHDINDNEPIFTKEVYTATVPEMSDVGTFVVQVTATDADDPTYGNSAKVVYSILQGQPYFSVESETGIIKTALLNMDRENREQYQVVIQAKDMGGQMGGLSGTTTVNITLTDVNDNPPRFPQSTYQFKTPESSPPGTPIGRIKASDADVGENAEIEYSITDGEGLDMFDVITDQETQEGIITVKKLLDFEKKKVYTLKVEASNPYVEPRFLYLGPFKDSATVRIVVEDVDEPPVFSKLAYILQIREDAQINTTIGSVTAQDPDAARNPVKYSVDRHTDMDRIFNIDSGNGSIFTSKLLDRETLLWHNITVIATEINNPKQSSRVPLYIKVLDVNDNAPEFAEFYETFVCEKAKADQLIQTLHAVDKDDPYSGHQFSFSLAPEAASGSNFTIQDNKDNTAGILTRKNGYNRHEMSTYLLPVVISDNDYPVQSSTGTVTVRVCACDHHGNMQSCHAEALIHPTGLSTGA
Experiment: ELISA of GST-fused GRS proteins with CDH6 (format not described further), normalized OD value

BSA (from UniProt P02769)
binding: no binding
